## Screening data, single-dose tests

From ChEMBL document CHEMBL3988442, “University of Dundee, Small-Polar-MMV Screening Library” (2021).

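Whole-cell growth test on Mycobacterium tuberculosis, read after 4 days in a medium based on cholesterol and the lipid DPPC; the read-out is not stated. Compounds at 50 µM. The record gives no direction; compounds that gave an IC50 in retests scored well above the rest, so higher reads as more growth inhibition. Size under these conditions: about 69,000 compounds, about 370 of them at 50% or above in at least one test.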

Values are the deposited “Percent Effect”, in %.
How 0% and 100% were set is not recorded. Most values in the screen are low, and negative values occur.
The compounds are a random part of those screened.
Two or more numbers in one place are separate tests of the same structure; such repeats can differ widely.

compound,percent effect
CC(C)c1cc(CNC(=O)Nc2cc(F)cc(N3CCCC3)c2)on1,-32.03%
Cc1noc(C)c1S(=O)(=O)N(C)Cc1nn(C)c(Cl)c1Cl,-7.723%
C[C@@H]1CC[C@@H](C)N1C(=O)c1cc(COc2ccccc2)[nH]n1,-11.87%
Cc1nc2c(c(NC(C)C)n1)CCN(C1CCOCC1)CC2.O=C(O)C(F)(F)F,5.401%
Cn1cc(-c2nc(CN3CCOC(Cn4cncn4)C3)cs2)cn1 (stereo not drawn),3.899%
O=C(NCc1cccnc1N1CCCCC1)c1cccs1,-4.965%
COc1ccc(C[C@H]2CNCC[C@@H]2OC)cc1.O=C(O)C(F)(F)F,-0.3597%
O=C(O)C(F)(F)F.[H][C@@]12CN(CC)C[C@]1(C(=O)N(C)C)CCC21CCN(S(C)(=O)=O)CC1,-16.14%
CN(C)CCOCc1nnc2n1CCN(Cc1ccco1)C2.O=C(O)C(F)(F)F.O=C(O)C(F)(F)F,-7.417%
CCOC(C)c1nccn1Cc1noc(CC)n1 (stereo not drawn),-5.848%
CC(C)NS(=O)(=O)c1cc(C(=O)O)cc(-c2ccccc2CO)c1,-1.474%
Cc1cnn(CC2CCCCN2C(=O)Cc2csc(C)n2)c1 (stereo not drawn),-4.923%
COCC(O)CN1CCC(NC(=O)c2ccccc2Cl)CC1 (stereo not drawn),11.03%
COCC(=O)N1CCCC1c1ccc(C(=O)NCc2ccccc2Cl)s1 (stereo not drawn),8.228%
Cc1cc(C)n(C2CN(CC(=O)NC3CCOCC3)C2)n1,-11.26%
Cc1nc(C)n(CC2CN(CCOc3ccccc3C#N)CCO2)n1 (stereo not drawn),0.8029%
CCn1c(C)nnc1SCCn1cc(-c2ncc[nH]2)nn1,4.634%
[H][C@]12CC[C@](O)(CC1)C(CO)N2Cc1ccc(F)cc1 (stereo partly drawn),-0.04434%
O=C(CCN1CCCCO1)N1CCC(CO)(CCc2ccccc2)CC1,11.67%
Nc1cnc(-c2cccc3c2CCNC3)cn1,0.3784%
NS(=O)(=O)NCC1(c2ccccc2Br)CC1,-5.192%
Cc1cc(C)n(NC(=O)c2ccc(Cl)cc2Cl)c(=O)c1,-31.93%
CC(C)c1nc(CS(=O)(=O)Cc2noc(C3CC3)n2)cs1,18.69%
O=C(O)C(F)(F)F.O=C(O)C(F)(F)F.[H][C@@]12CN(Cc3ccoc3)CCO[C@]1([H])CN(Cc1ccco1)C2,3.361%
CCOC1COC2(CCN(S(=O)(=O)c3cccc(F)c3)CC2)C1 (stereo not drawn),-20.72%
CC(C)OC(=O)N1CCCC2(CCC(=O)N(CCc3c[nH]cn3)C2)C1 (stereo not drawn),-9.543%
CCN(Cc1ccc2c(c1)OCO2)c1ncc(S(N)(=O)=O)s1,8.948%
COC(=O)c1ccoc1CN(C)Cc1ccccc1,-7.834%
Cc1scc(C(=O)N2CCC3(CC(=O)NC3=O)C2)c1-c1ccccc1 (stereo not drawn),9.441%
N#Cc1cccc(CN2CC3(CCCCN3c3cccnc3)CC2=O)c1.O=C(O)C(F)(F)F (stereo not drawn),13.17%
Cc1ccc(CN2CCCC(c3nnc(CN4CCCC4)n3C)C2)s1 (stereo not drawn),-16.13% and 2.317%
CS(=O)(=O)N1CCc2sc(C(=O)NCCc3ccccn3)cc21,-8.264%
CC(NC(=O)COc1ccccc1I)C1CC1 (stereo not drawn),7.07%
CCNC(=O)[C@@H]1C[C@@H](NC(=O)c2cnc[nH]c2=O)CN1Cc1ccsc1,-14.58%
CCOc1ccccc1CNC1CCCN(Cc2noc(C)n2)C1 (stereo not drawn),-8.008%
Cc1nc(C)c2c(n1)CCN(Cc1ccsc1)CC2,15.99% and 28.71%
COc1ccc(-c2cc3nc(CCNC(=O)C4CC4)nn3cn2)cc1,-0.5129% and -24.02%
CCN(Cc1nc2c(cnn2C)c(=O)[nH]1)c1cccc(C)c1,41.26%
Cc1ccnc(NCCCN2CCc3ccccc32)n1,0.5323%
Clc1cccc(-n2cnnn2)c1N1CCOCC1,-10.8%
Cc1nsc(NC(=O)NC2CCCOC2)n1 (stereo not drawn),-30.91%
Cc1ccccc1S(=O)(=O)NC(=O)C1(c2cccc(Cl)c2)CC1,-22.47%
O=C(O)C(F)(F)F.[H][C@]12CN(C)C[C@@]1(C(=O)O)CCCN(C(=O)NCc1cccc(F)c1)C2,-12.55%
O=C(CCOc1ccccc1F)N1CCCC(n2cncn2)C1 (stereo not drawn),-23.21%
CN(C)Cc1cc(CC2(NCc3ccc(C#N)cc3)COC2)no1,21.54%
O=C(O)C(F)(F)F.[H][C@]12CCC[C@@]1(COCc1cccnc1)CN(C(=O)c1ccn(C)n1)C2,-5.816%
CS(=O)(=O)NC1CCN(C(=O)NCCc2ccccc2F)CC1,6.896%
O=C(NC1CC1)C1CNCCN1C(=O)COc1ccc2c(c1)OCO2 (stereo not drawn),-0.0603%
Cc1ccc2c(n1)N(C)CCN(Cc1cnn(C)c1)C2,4.322%
CN(C)c1cc(C(=O)Nc2cccnc2N2CCSCC2)ccn1,-11.75%
Cc1nn(C)c(N(C)C)c1CNCc1nnc2n1CCCCC2.Cl,-1.935%
Cc1nc(C)c2c(n1)CCN(Cc1nccn1C)CC2.O=C(O)C(F)(F)F,-38.88%
Cc1[nH]nc(CCC(=O)NCC2CCCN(C3CCCC3)C2)c1C (stereo not drawn),1.758%
COc1ccc(C(=O)Nc2cnn(CC(=O)NC3CCCC3)c2)c(O)c1,2.416%
CN1CC2(CCN(C(=O)Cn3ncc4ccccc4c3=O)CC2)OC1=O,-11.08%
Cc1ccc(C(=O)N2CCC(Oc3cccc(C)c3C)CC2)c(=O)[nH]1,-1.922%
O=C(O)C1CCCN(c2nc3c(-c4ccccc4)csc3c(=O)[nH]2)C1 (stereo not drawn),0.8137%
O=C1CC2(CCCCN2C(=O)c2ccoc2)CN1Cc1ccccc1 (stereo not drawn),-5.04%
COCCNC(=O)CN(C)CCn1nc2ccccn2c1=O,9.643%
Cc1nc(C)c(CC(=O)N2C[C@@H](C(=O)O)[C@H](c3ccncc3)C2)s1,-2.484% and -8.068%

Some entries from above, unchanged:

compound,percent effect
COCC(O)CN1CCC(NC(=O)c2ccccc2Cl)CC1 (stereo not drawn),11.03%
COCCNC(=O)CN(C)CCn1nc2ccccn2c1=O,9.643%
CCn1c(C)nnc1SCCn1cc(-c2ncc[nH]2)nn1,4.634%
N#Cc1cccc(CN2CC3(CCCCN3c3cccnc3)CC2=O)c1.O=C(O)C(F)(F)F (stereo not drawn),13.17%
CCNC(=O)[C@@H]1C[C@@H](NC(=O)c2cnc[nH]c2=O)CN1Cc1ccsc1,-14.58%
CN(C)c1cc(C(=O)Nc2cccnc2N2CCSCC2)ccn1,-11.75%
Nc1cnc(-c2cccc3c2CCNC3)cn1,0.3784%